{"source": "patent US8124365B2", "about": "“Identification of genotype-selective anti-tumor agents” (Whitehead Institute for Biomedical Research, priority 2003, dated 2012)", "tested_on": "BJ-TERT/LT/ST/RAS^V12 cells relative to BJ-TERT cells", "experiment": "Alamar Blue viability assay", "format": "cell-based, human", "note": "At least one structure is not confirmed: it was looked up by name or label, or the drawing left a doubt.", "data": [{"compound": "CCOc1ccccc1-n1c(C(C)N2CCN(C(=O)COc3ccc(Cl)cc3)CC2)nc2ccccc2c1=O", "note": "(stereo not shown) [Erastin, erastin]", "values": [{"measurement": "lethality in Alamar Blue viability assay", "value": "exhibited selective lethality"}]}]}
